PubChem BioAssay AID1259405 – NCATS – 2018

Screen: 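Knock-downs that lift recombinant protein yield in hamster ovary cells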 (primary screen)
Cells: Chinese hamster CHO-K1 ovary cells with stable secreted eGFP expression
Reagents: single siRNA against mouse genes, 0.8 pmol siRNA per well (2 µl of 400 nM stock)
Time to read-out: 3 days
Read-out: 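Per-well intracellular GFP measured by laser scanning cytometry, plus viability from ATP luminescence, each relative to plate median of non-targeting control wells, in %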
Direction: GFP, % of control: higher = more GFP per well, higher productivity; viability (ATP), % of control: higher = more viable cells (more ATP)
Call rule: 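a knock-down is called active if GFP reaches 120% or more of non-targeting control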
In all, the deposit lists about 50,000 reagents; below is a part drawn at random. Over the whole deposit, about 4,000 (8%) are marked active. 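Mouse siRNA library applied to hamster cells; one well for each siRNA.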

Against Atp6v0e [SID363569981], the values are GFP, % of control 136; viability (ATP), % of control 113; active.
Against Atp6v0e [SID363577021], the entry reads GFP, % of control 115; viability (ATP), % of control 133; inactive.
Silencing of Atp6v0e [SID363578429] gave: GFP, % of control 53.1; viability (ATP), % of control 53.6; inactive.
Or2y1f [SID363554186] gave GFP, % of control 91.1; viability (ATP), % of control 76.3; inactive.
With knock-down of Or2y1f [SID363567633], the screen gave GFP, % of control 121; viability (ATP), % of control 76.6; active.
Knock-down of Or2y1f [SID363584990] gave: GFP, % of control 82.7; viability (ATP), % of control 110; inactive.
Snapc5 [SID363554845] gave GFP, % of control 73.6; viability (ATP), % of control 62.7; inactive.
After knock-down of Snapc5 [SID363568292], the record shows GFP, % of control 66.9; viability (ATP), % of control 69; inactive.
With knock-down of Snapc5 [SID363586351], the screen gave GFP, % of control 104; viability (ATP), % of control 48.9; inactive.
Knock-down of Rac3 [SID363570135] gave: GFP, % of control 64.2; viability (ATP), % of control 45.9; inactive.
With knock-down of Rac3 [SID363576471], the record shows GFP, % of control 115; viability (ATP), % of control 124; inactive.
For Rac3 [SID363579639], the values are GFP, % of control 42; viability (ATP), % of control 90.1; inactive.
Depletion of Ftsj3 [SID363569391] came out at: GFP, % of control 74.9; viability (ATP), % of control 70.9; inactive.
With knock-down of Ftsj3 [SID363577135], the record shows GFP, % of control 80.2; viability (ATP), % of control 64.3; inactive.
Ftsj3 [SID363578543] showed GFP, % of control 91.3; viability (ATP), % of control 66.2; inactive.
Against Rpl5 [SID363554012], the values are GFP, % of control 44.1; viability (ATP), % of control 40.7; inactive.
Knock-down of Rpl5 [SID363561969] resulted in: GFP, % of control 68.2; viability (ATP), % of control 61.1; inactive.
With knock-down of Rpl5 [SID363565707], the record shows GFP, % of control 60.7; viability (ATP), % of control 41.4; inactive.
Klra6 [SID363540317] gave GFP, % of control 69.1; viability (ATP), % of control 68.4; inactive.
Silencing of Klra6 [SID363542069] resulted in: GFP, % of control 99; viability (ATP), % of control 65.2; inactive.
With knock-down of Klra6 [SID363566985], the record shows GFP, % of control 112; viability (ATP), % of control 74.5; inactive.
Depletion of Or6c33 [SID363554473] came out at: GFP, % of control 120; viability (ATP), % of control 92.6; inactive.
Or6c33 [SID363567920] scored GFP, % of control 106; viability (ATP), % of control 74.5; inactive.
Or6c33 [SID363585979] gave GFP, % of control 69.2; viability (ATP), % of control 113; inactive.
Zfyve1 [SID363556575] showed GFP, % of control 51.2; viability (ATP), % of control 50.6; inactive.
With knock-down of Zfyve1 [SID363563479] the results were GFP, % of control 71.5; viability (ATP), % of control 71.3; inactive.
For Zfyve1 [SID363587025], the entry reads GFP, % of control 66.9; viability (ATP), % of control 83.1; inactive.
Rspo3 [SID363556245] scored GFP, % of control 42.8; viability (ATP), % of control 62.4; inactive.
With knock-down of Rspo3 [SID363586695], the record shows GFP, % of control 103; viability (ATP), % of control 113; inactive.
Rspo3 [SID363588803] gave GFP, % of control 57.3; viability (ATP), % of control 57.7; inactive.
Sp1 [SID363569024] scored GFP, % of control 112; viability (ATP), % of control 88.9; inactive.
Sp1 [SID363583456] gave GFP, % of control 81.5; viability (ATP), % of control 63.6; inactive.
Depletion of Or9g19 [SID363544653] gave: GFP, % of control 58.9; viability (ATP), % of control 65.2; inactive.
Against Or9g19 [SID363550981], the entry reads GFP, % of control 99.4; viability (ATP), % of control 82.2; inactive.
Or9g19 [SID363557530] showed GFP, % of control 78.2; viability (ATP), % of control 53.4; inactive.
With knock-down of Slc51a [SID363547561] the results were GFP, % of control 62.5; viability (ATP), % of control 35; inactive.
Against Slc51a [SID363558330], the values are GFP, % of control 43.5; viability (ATP), % of control 66.3; inactive.
After knock-down of Slc51a [SID363560088], the screen gave GFP, % of control 99.3; viability (ATP), % of control 65.8; inactive.
Silencing of Retreg3 [SID363540593] resulted in: GFP, % of control 92.3; viability (ATP), % of control 89.7; inactive.
Depletion of Retreg3 [SID363543044] resulted in: GFP, % of control 77.3; viability (ATP), % of control 79.7; inactive.
Retreg3 [SID363552537] gave GFP, % of control 37.9; viability (ATP), % of control 46.7; inactive.
